Source: PubChem BioAssay AID1259425 (University of Nebraska Medical Center, 2018)

Screen: 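Seek colon cancer weak points whose silencing resembles KSR1 loss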 (primary screen)
Cell system: HCT116 human colon cancer cells
Reagents: siRNA pool against human genes, 50 nM siRNA
Measurement: 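mRNA of six signature genes measured together by branched-DNA assay after 50 nM siRNA pool, blank removed, divided by geometric mean of two housekeeping genes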
Direction: BNIP3L mRNA: higher = more BNIP3L transcript after knockdown; NDRG1 mRNA: higher = more NDRG1 transcript after knockdown
Here is a random part of about 14,000 reagents. Further read-outs or replicates are left out here. Not stated in the record: the time to read-out.

{"gene": "PTPRG", "BNIP3L mRNA, set 1": 0.0893, "NDRG1 mRNA, set 1": 0.0804}
{"gene": "ULBP3", "BNIP3L mRNA, set 1": 0.355, "NDRG1 mRNA, set 1": 0.424}
{"gene": "DFFA", "BNIP3L mRNA, set 1": 0.0491, "NDRG1 mRNA, set 1": 0.234}
{"gene": "IFI30", "BNIP3L mRNA, set 1": 0.0681, "NDRG1 mRNA, set 1": 0.183}
{"gene": "TK2", "BNIP3L mRNA, set 1": 0.18, "NDRG1 mRNA, set 1": 0.221}
{"gene": "NSUN7", "BNIP3L mRNA, set 1": 0.178, "NDRG1 mRNA, set 1": 0.166}
{"gene": "EIF2AK1", "BNIP3L mRNA, set 1": 0.134, "NDRG1 mRNA, set 1": 0.0405}
{"gene": "SIAE", "BNIP3L mRNA, set 1": 0.156, "NDRG1 mRNA, set 1": 0.235}
{"gene": "SSR4", "BNIP3L mRNA, set 1": 0.0848, "NDRG1 mRNA, set 1": 0.0815}
{"gene": "SPANXA1", "BNIP3L mRNA, set 1": 0.235, "NDRG1 mRNA, set 1": 1.25}
{"gene": "LINC01558", "BNIP3L mRNA, set 1": 0.128, "NDRG1 mRNA, set 1": 0.499}
{"gene": "TMEM214", "BNIP3L mRNA, set 1": 0.079, "NDRG1 mRNA, set 1": 0.192}
{"gene": "KRTAP9-3", "BNIP3L mRNA, set 1": 0.252, "NDRG1 mRNA, set 1": 0.259}
{"gene": "MAGT1", "BNIP3L mRNA, set 1": 0.203, "NDRG1 mRNA, set 1": 0.263}
{"gene": "KIR3DL3", "BNIP3L mRNA, set 1": 0.0532, "NDRG1 mRNA, set 1": 0.0608}
{"gene": "KIF2A", "BNIP3L mRNA, set 1": 0.156, "NDRG1 mRNA, set 1": 0.136}
{"gene": "HINT1", "BNIP3L mRNA, set 1": 0.118, "NDRG1 mRNA, set 1": 0.146}
{"gene": "ABHD14A", "BNIP3L mRNA, set 1": 0.107, "NDRG1 mRNA, set 1": 0.141}
{"gene": "C11orf68", "BNIP3L mRNA, set 1": 0.0584, "NDRG1 mRNA, set 1": 0.12}
{"gene": "SCT", "BNIP3L mRNA, set 1": 0.121, "NDRG1 mRNA, set 1": 0.173}
{"gene": "TSSK6", "BNIP3L mRNA, set 1": 0.138, "NDRG1 mRNA, set 1": 0.196}
{"gene": "SRRT", "BNIP3L mRNA, set 1": 0.159, "NDRG1 mRNA, set 1": 0.588}
{"gene": "FNDC4", "BNIP3L mRNA, set 1": 0.128, "NDRG1 mRNA, set 1": 0.285}
{"gene": "TRMT2B", "BNIP3L mRNA, set 1": 0.189, "NDRG1 mRNA, set 1": 0.206}
{"gene": "PCNP", "BNIP3L mRNA, set 1": 0.0654, "NDRG1 mRNA, set 1": 0.188}
{"gene": "RFXANK", "BNIP3L mRNA, set 1": 0.155, "NDRG1 mRNA, set 1": 0.0822}
{"gene": "SSX5", "BNIP3L mRNA, set 1": 0.129, "NDRG1 mRNA, set 1": 0.413}
{"gene": "HLA-A", "BNIP3L mRNA, set 1": 0.117, "NDRG1 mRNA, set 1": 0.625}

4 successive records already listed, quoted:
{"gene": "SSR4", "BNIP3L mRNA, set 1": 0.0848, "NDRG1 mRNA, set 1": 0.0815}
{"gene": "SPANXA1", "BNIP3L mRNA, set 1": 0.235, "NDRG1 mRNA, set 1": 1.25}
{"gene": "LINC01558", "BNIP3L mRNA, set 1": 0.128, "NDRG1 mRNA, set 1": 0.499}
{"gene": "TMEM214", "BNIP3L mRNA, set 1": 0.079, "NDRG1 mRNA, set 1": 0.192}
